Data from US20230242616A1, “CHEMOKINE-SELECTIVE CXCR4 ECTODOMAIN-DERIVED (POLY)PEPTIDE” (Ludwig-Maximilians-Universität München, priority 2020, published 2023).
No constants are given. Whether binding was seen depends on the method and setting. Some results given as binding are weak or reduced against the parent protein; the word gives no strength.

Chains of the proteins cited; added tags and fusions are not shown. Residues count along the entry.
UniProt P48061, residues 22-89: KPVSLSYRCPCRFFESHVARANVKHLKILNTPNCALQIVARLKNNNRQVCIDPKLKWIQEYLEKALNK

How the values were obtained:
[1] = target: T1, human macrophage migration-inhibitory factor (MIF) (human) (UniProt P14174); test: fluorescence spectroscopic binding assay
T1 sequence (Alexa-Fluor 488 or Monolith NT-647 (MST-Red) label where so named, looked up): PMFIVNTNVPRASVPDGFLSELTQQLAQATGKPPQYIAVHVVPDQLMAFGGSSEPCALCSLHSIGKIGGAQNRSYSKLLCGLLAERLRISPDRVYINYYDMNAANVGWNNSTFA

[2] = target: T1, human macrophage migration-inhibitory factor (MIF) (human); test: fluorescence spectroscopic titration of Fluos-ngm-LD3 with increasing MIF [panel B (spectra: D00078 Figure 30 A]
[3] = target: T1, human macrophage migration-inhibitory factor (MIF) (human); test: fluorescence spectroscopic titrations
[4] = target: T1, human macrophage migration-inhibitory factor (MIF) (human); test: fluorescence spectroscopic titration of Alexa-MIF with increasing ngm-LD3 [panel D (spectra: D00078 Figure 30 C]
CXCL12 (human) = CXCL12 (human) (UniProt P48061); test: binding test for CXCL12; no number given

Measured: binding

WYFGNFLCKDDDDRFYPNDLW (designed binder, C-terminal amide; N-terminus free, or Fluos where so labelled) [msR4M-LD3 ([ECL1(102-110)]-D-D-D-[ECL2(187-195)])]
not listed: CXCL12 (human)
binds: all other assays above

WYFGNFLCKKKKDRFYPNDLW (designed binder, C-terminal amide; N-terminus free, or Fluos where so labelled) [msR4M-LK3 ([ECL1(102-110)]-K-K-K-[ECL2(187-195)])]
binds: [1] | [3] | CXCL12 (human)

WYFGNFLCKRRRDRFYPNDLW (designed binder, C-terminal amide; N-terminus free, or Fluos where so labelled) [msR4M-LR3 ([ECL1(102-110)]-R-R-R-[ECL2(187-195)])]
binds: [1] | [3] | CXCL12 (human)
